The record followed here is PubChem BioAssay AID493014 (National Center for Advancing Translational Sciences (NCATS), 2011).

The assay in a line: qHTS Assay to Find Inhibitors of Chronic Active B-Cell Receptor Signaling. The following applies: ABC-DLBCL IkBa-CBG/CBR reporter, luminescence ratio (green luciferase fused to IkBa over red control in TMD8 lymphoma cells), 4 h. Summed up:
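Concentration-response series (up to 46 uM) were applied to TMD8 dual-reporter cells for 4 h at 37C with doxycycline. Green/red ratio, after filter-overlap correction, defined %Activity; red signal alone was normalised to basal cells and zero luminescence.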
Background: In qHTS, concentration-response curves come from the screen itself.

Setting [1] is: measured here: CBR red luminescence, cell number.
The mark [2] stands for this setting: measured here: IkBa-CBG green luminescence.

Each structure is given as a SMILES string. Some of the results follow. Shown are side measurements of this screen, not its main read-out; they come without a call. Compounds called inactive in the main read-out are mostly missing here. Words in brackets tell the shape of the fitted curve; partial curves, single points and poor fits give uncertain potencies.

What is called AC50 is the concentration giving half of the maximal activity seen. With `O=C(Nc1ccc(Cl)c([N+](=O)[O-])c1)c1ccncc1`, the AC50 under setting [1] was 25.9 µM [rising, partial curve].
In the case of `CCC1=NN2C(=N)/C(=C/c3cc(C)n(-c4ccccc4)c3C)C(=O)N=C2S1`, the AC50 under setting [1] is 3.16 µM [falling, single point].
In the case of `O=C(NC1=NCCS1)C1CCN(S(=O)(=O)c2cc([N+](=O)[O-])ccc2Cl)CC1`, the AC50 under setting [2] is 23.1 µM [falling, partial curve, poor fit].
For the molecule `CC1CCN(c2c(NCc3ccc(C(=O)NCc4cccnc4)cc3)c(=O)c2=O)CC1`, the AC50 under setting [1] is 25.9 µM [rising, single point].
For the molecule `COc1ccc(-c2ccc(CCC(=O)O)n2-c2ccccc2O)cc1`, the AC50 under setting [2] was 22.4 µM [falling, single point].
Consider `O=c1c2ccccc2nc(SCc2nc(-c3ccccc3)no2)n1-c1ccc(F)cc1`, for which the AC50 under setting [1] is 6.51 µM [rising, single point].
Turning to `CC(C)C[C@H](NC(=O)c1nc[nH]c1C(=O)NCC(=O)OC(C)(C)C)C(=O)OC(C)(C)C`, the AC50 under setting [1] is 20 µM [falling, partial curve, poor fit].
Turning to `CCn1cc(C(=O)N[C@H](C(=O)NCCCOC)C(C)C)c(=O)c2cc3c(cc21)OCO3`, the AC50 under setting [1] is 2.82 µM [falling, partial curve].
`COc1cccc(/C=C/C(=O)NNC(=O)c2ccco2)c1OC`: the concentration at half-maximal activity (AC50) under setting [1] is 20.6 µM [falling, partial curve, poor fit].
The same measure, in the same setting: as for `COc1cc(OC)c(C(=O)NNC(=O)c2ccccc2-n2cccc2)cc1OC`, the figure is 5.17 µM [falling, single point]; as for `CC1=Nc2ccccc2/C1=C/c1sc(=O)n(CC(=O)N2CCCC2)c1O`, 3.55 µM [falling, full curve].
Regarding `O=C(Nc1nccs1)C(NS(=O)(=O)c1ccc(Br)s1)c1ccccc1` (configuration not stated), the AC50 under setting [1] is 35.5 µM [falling, single point].
On to `CCOC(=O)CC(=O)CSc1nc(C)cc(-c2cccnc2)c1C#N`, for which the AC50 under setting [1] is 11.6 µM [rising, partial curve, poor fit].
Consider `O=C(O)c1cccc(NC2=C(Cl)C(=O)c3ccccc3C2=O)c1`, for which the AC50 under setting [1] was 1.12 µM [falling, full curve].
Turning to `O=C(O)c1ccc(-c2ccccc2)[nH]1`, under setting [1], the AC50 is 3.98 µM [rising, partial curve, poor fit].
For `Cc1cccc(Oc2nc3ccccn3c(=O)c2/C=C(\C#N)C(=O)NC2CCS(=O)(=O)C2)c1` (configuration not stated), under setting [1], the AC50 was 25.9 µM [falling, partial curve, poor fit].
Still for that read-out and setting: as for `NC(=S)N=Nc1c(O)n(CC(=O)Nc2ccccc2)c2ccccc12`, the figure is 3.98 µM [rising, single point].
Consider `COc1ccc(C2=CSC3=NCCN23)cc1Cl`, for which the concentration at half-maximal activity (AC50) was 35.5 µM [rising, single point] under setting [1] and 11.2 µM [falling, partial curve, poor fit] under setting [2].
With `C/C=C\C=C\C(=O)Nc1cccc(C2=NOC3(C2)C[C@@H](C(N)=O)N(C(=O)C(c2ccccc2)c2ccccc2)C3)c1` (some centres not stated), under setting [1], the half-maximal activity concentration (AC50) is 15.8 µM [falling, partial curve, poor fit].
As to `COc1ccccc1NC(=O)CN1C(=O)c2ccccc2Sc2ccc(C(=O)N3CCCC3)cc21`, under setting [1], the AC50 is 11.2 µM [falling, partial curve, poor fit].
For the molecule `O=S(=O)(Nc1ccc(Cc2ccncc2)cc1)c1ccc(Cl)c(Cl)c1`, the concentration at half-maximal activity (AC50) under setting [1] is 25.1 µM [falling, single point].
Regarding `CC(C)(C)OC(=O)N1CCC(C(=O)Nc2ccc(C(=O)N3CCOCC3)cc2)CC1`, the AC50 under setting [1] is 0.517 µM [rising, full curve, poor fit].
In the case of `CCCC(=O)c1ccc(N2CCC(C)CC2)c(F)c1`, under setting [1], the AC50 is 29.1 µM [rising, single point].
In the case of `CCCCNC(=O)Nc1cc(C(=O)OC)ccc1C`, the AC50 under setting [1] was 35.5 µM [rising, single point].
Turning to `O=C(N/N=C1/CCSC1)c1cc(Br)ccc1O`, the AC50 under setting [1] is 0.891 µM [falling, full curve].
Take `O=C(NCCO)C1(c2ccc(Cl)cc2)CCCC1`: the AC50 under setting [1] was 2.91 µM [rising, single point].
Turning to `CCCCC#Cc1cncc(C(=O)NN)c1`, the concentration at half-maximal activity (AC50) under setting [1] is 3.55 µM [falling, partial curve].
On the same count and under the same terms, the value for `Oc1ccc(/C=N/Nc2cccc(Cl)n2)c(O)c1` was 8.91 µM [falling, partial curve, poor fit].
Regarding `O=C(Nc1ncnc2sc3c(c12)CCCCC3)c1ccc(F)cc1`, under setting [1], the concentration at half-maximal activity (AC50) was 29.1 µM [rising, single point].
The same measure, in the same setting: as for `O=C(CS(=O)(=O)Cc1ccccc1)N1CCc2ccccc2C1`, the figure is 0.82 µM [rising, partial curve, poor fit]; as for `COCc1cc(C)nc(N2CCNCC2)c1C#N`, 4.61 µM [rising, full curve, poor fit].
Take `O=C(O)Cc1ccc(C(=O)CSc2ccccc2)s1`: under setting [1], the AC50 is 35.5 µM [falling, single point].
`Fc1ccc(-c2csc(=S)[nH]2)cc1`: the AC50 under setting [2] is 35.5 µM [falling, single point].
`COc1ccccc1-c1cc(C(=O)N/N=C\c2cn(C)nc2C)c2ccccc2n1`: under setting [1], the AC50 was 3.26 µM [rising, single point].
Consider `CN(CCO)c1ccc(-c2n[nH]c(=O)c3ccccc23)cc1[N+](=O)[O-]`, for which the half-maximal activity concentration (AC50) under setting [1] is 12.6 µM [falling, single point].
Turning to `Cc1ccnc2c1ccc1c(C)ccnc12`, under setting [1], the concentration at half-maximal activity (AC50) was 29.1 µM [falling, single point].
In the case of `CCC(=O)c1ccc(OCC(=O)N2CCc3cc(OC)c(OC)cc3C2)cc1`, under setting [1], the AC50 is 5.8 µM [rising, single point].
Consider `CN(C)c1cc(NC(=O)CNC(C)(C)C)c2ccccc2n1`, for which, under setting [1], the AC50 was 11.2 µM [falling, partial curve, poor fit].
On to `CC(=O)Nc1cccc(NC(=O)c2cc(C)on2)c1`, for which the AC50 under setting [1] is 20.6 µM [falling, partial curve].
Consider `COc1cccc(CN2CC(C(=O)NCc3ccc(Cl)s3)CCC2=O)c1` (configuration not stated), for which the AC50 under setting [1] was 11.2 µM [falling, partial curve, poor fit].
Still for that read-out and setting: as for `O=C(COC(=O)c1ccc(O)cc1O)NC1CCCCCC1`, the figure is 29.1 µM [falling, single point]; as for `C=CCn1c(=O)/c(=C/c2ccc(Cl)cc2)s/c1=C(/C#N)c1nnc2n1CCCCC2`, 8.2 µM [rising, partial curve, poor fit]; as for `COc1ccccc1C(=O)N(CCC1CCCN1C)c1nc2ccccc2s1` (configuration not stated), 3.55 µM [falling, full curve].
Consider `O=C(/C=C/c1ccco1)N1CCN(S(=O)(=O)c2cccc([N+](=O)[O-])c2)CC1`, for which the AC50 under setting [1] was 3.26 µM [rising, partial curve].
`CCOCc1[nH]c(=S)[nH]c(=O)c1Cc1ccc(OC(C)C)cc1`: the AC50 under setting [1] is 4.47 µM [rising, full curve, poor fit].
Turning to `CCOCC(=O)Nc1ccccc1C(=O)OCC`, the AC50 under setting [1] is 6.51 µM [rising, single point].
Regarding `Cc1ccc(C(=O)O)cc1NC(=O)c1cccs1`, under setting [1], the AC50 was 6.51 µM [falling, single point].
Regarding `O=C(Nc1ccc2c(c1)OCCO2)c1cccc(C(=O)Nc2ccc3c(c2)OCCO3)c1`, under setting [1], the AC50 was 35.5 µM [falling, single point].
As to `O=C(COC(=O)/C=C/c1cccc(F)c1)Nc1ncccn1`, under setting [1], the AC50 is 0.708 µM [rising, full curve, poor fit].
On to `O=C(CN(C(=O)CCC(=O)Nc1nccs1)c1ccccc1F)NCCc1ccccc1`, for which the half-maximal activity concentration (AC50) under setting [2] was 14.1 µM [rising, partial curve, poor fit].
As for `O=C(CN1C2=NCCN2c2ccccc21)c1ccc(Br)cc1`, the AC50 under setting [1] was 14.1 µM [falling, single point].
As to `O=C(Cc1ccccc1)NCc1ccc2c(c1)OCO2`, under setting [1], the AC50 was 16.4 µM [falling, single point].
With `O=C(COC(=O)/C=C/c1ccc(OC(F)F)cc1)NC1CCCCC1`, the AC50 under setting [1] was 0.00461 µM [rising, full curve, poor fit].
Take `COc1ccc(C2=NOC(C(=O)NCc3ccco3)C2)cc1` (configuration not stated): the AC50 under setting [2] was 29.1 µM [falling, single point].
As for `COc1ccc(C(C)=O)cc1CSc1nc(NCCc2ccccc2)c2ccccc2n1`, the AC50 under setting [1] is 6.31 µM [rising, single point].
On the same count and under the same terms, as for `COCCNCCCCOc1ccc(Br)cc1C`, the figure is 16.4 µM [falling, single point]; as for `CC1CCCN(C(=O)c2ccc(S(=O)(=O)Nc3ccccc3Cl)cc2)C1` (configuration not stated), 0.251 µM [rising, full curve, poor fit]; as for `COc1ccc(CCNC(=O)Nc2ccccc2[N+](=O)[O-])cc1`, 35.5 µM [falling, partial curve, poor fit].
Regarding `COc1cccc(OCc2nc3ncc(Br)cc3[nH]2)c1`, under setting [1], the AC50 was 1.3 µM [rising, partial curve].
The same measure, in the same setting: the value for `CC1(C)CNC(=O)c2sc(NC(=O)c3ccccc3Cl)nc2C1` was 6.31 µM [falling, partial curve]; that for `FC(F)(F)c1cccc(-c2nn[nH]n2)c1` was 2.51 µM [rising, full curve, poor fit]; that for `COc1ccc2nc(SC)c(C#N)cc2c1` was 35.5 µM [falling, single point].
For `COc1ccc(Cl)cc1NC(=O)NCC1CCN(Cc2cc(C)ccc2C)CC1`, the half-maximal activity concentration (AC50) under setting [1] is 25.1 µM [falling, single point].
On to `O=C(Nc1nc(COc2ccccc2)cs1)C1CCC1`, for which the AC50 under setting [1] was 0.651 µM [rising, full curve, poor fit].
On to `Cc1cccc(CCNC(=O)C2CCN(S(=O)(=O)c3c(C)noc3C)CC2)c1`, for which, under setting [1], the AC50 was 0.517 µM [falling, full curve, poor fit].
With `COc1ccc2nc(Cl)c(C#N)cc2c1`, under setting [2], the AC50 was 11.2 µM [rising, partial curve, poor fit].
